From PMC7819943, “Rice protein-binding microarrays: a tool to detect cis-acting elements near promoter regions in rice” come the findings set out here.

Amino acid sequences for entries named in this document (tags omitted).
UniProt Q0JBA9, entry or part of it: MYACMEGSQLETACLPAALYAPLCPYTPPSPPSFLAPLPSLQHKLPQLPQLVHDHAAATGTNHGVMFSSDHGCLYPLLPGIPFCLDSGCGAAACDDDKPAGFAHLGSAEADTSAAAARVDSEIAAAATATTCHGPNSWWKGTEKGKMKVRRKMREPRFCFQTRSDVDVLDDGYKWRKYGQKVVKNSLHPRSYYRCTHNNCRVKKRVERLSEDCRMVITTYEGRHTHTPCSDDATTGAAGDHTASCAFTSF

The other results are listed elsewhere or left out.

The target of this assay is OsWRKY34 (Oryza sativa, UniProt Q0JBA9 1-250). Kind of assay: protein-binding microarray (RPBM); PBS, 2% BSA, 51.3 ng/ul salmon testes DNA, 50 uM zinc acetate, 200 nM TF, 25 C, 1 h; high values mean tight binding. Particulars: protein: recombinant; tags: N-terminal polyhistidine and DsRed monomer fusion (pET32a); label: CyDye5-dUTP incorporated in the synthesized complementary strand; 3' TTTTT single-stranded linker to array surface; dsDNA, one strand shown. In short, it runs like this: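 Transcription factors were made in E. coli BL21-CodonPlus as N-terminal fusions to a polyhistidine tag and DsRed, then purified on Ni–NTA. After primer extension with Cy5-dUTP and blocking with 2% BSA, a custom Agilent array was exposed for 1 h at 25 °C to 200 nM protein in PBS, 2% BSA, salmon testes DNA and 50 µM zinc acetate. Washed arrays were scanned on an Axon 4000B, and the binding signal is per-feature fluorescence intensity in arbitrary units.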
Consider “ATAGGGTGTAATTTATTTTCGGATTTGCTACATCTCTGTCCGGAGTCACCTAGTGCAG”, for which the binding signal is 8080 fluorescence intensity (a.u.).

Turning to “TCCTCCACTGCTGCCGCCCACCTCTCCGTATCAGCTGCGTCGGAGTCACCTAGTGCAG”, the binding signal is 8300 fluorescence intensity (a.u.).

“AGTAACAAACTCGATGCATGCACCATCCCCACTATTCCCTCGGAGTCACCTAGTGCAG”: the binding signal is 11100 fluorescence intensity (a.u.).

Regarding “ACCTATAGTCACTAGCTAGCTCGATCCAGCTCCTCACCTCCGGAGTCACCTAGTGCAG”, the binding signal is 8310 fluorescence intensity (a.u.).

Take “TATGGGTTGCTCGATCTTTCTATAAATAATAACGCTACTCCGGAGTCACCTAGTGCAG”: the binding signal is 8220 fluorescence intensity (a.u.).

Consider “GCGGTTTTGATCCCGGTTTTGTCCTACATGGCTGCTGAGTCGGAGTCACCTAGTGCAG”, for which the binding signal is 10500 fluorescence intensity (a.u.).

Take “GAGTACATGCATTATATTAGGCAATCACCATTTTGTAAACCGGAGTCACCTAGTGCAG”: the binding signal is 8570 fluorescence intensity (a.u.).

Take “CGAAGCCGCACGAAGGTGGTGGTGGTTGGTGGTAGGGTTTCGGAGTCACCTAGTGCAG”: the binding signal was 8030 fluorescence intensity (a.u.).

As for “ATTTCTGCCTAGTACGTGTTCGATCGGTGTTCCACGGTGACGGAGTCACCTAGTGCAG”, the binding signal was 10500 fluorescence intensity (a.u.).

Consider “GCAGTGCCATGTTCTTGAGTTTCTTTCGGTTTTTTTAATCCGGAGTCACCTAGTGCAG”, for which the binding signal is 10500 fluorescence intensity (a.u.).

As for “GGGTGAGCACATCTGAAGAGACTTTCTTTTATATTCATTCCGGAGTCACCTAGTGCAG”, the binding signal is 9680 fluorescence intensity (a.u.).

For the sequence “CGTTACATTAGCCACCGCCGCTGCCACCACGGGCGCTGCCCGGAGTCACCTAGTGCAG”, the binding signal is 9630 fluorescence intensity (a.u.).

For “GTCTCTTTCCGCTGCTTCGTTTCTGTCTCCGGTTTATTCACGGAGTCACCTAGTGCAG”, the binding signal was 18800 fluorescence intensity (a.u.).

Take “GACACCACCGCCGCCGCCGTCCTCGTCATCTCCAGATCGCCGGAGTCACCTAGTGCAG”: the binding signal was 9850 fluorescence intensity (a.u.).

Regarding “CCACCCCAACCACCATCTCACTGCCAGTGGGCCCGAACCCCGGAGTCACCTAGTGCAG”, the binding signal is 11200 fluorescence intensity (a.u.).

Take “CACCCATACATGAGTCCACTTCGAGTTGTCCTCTGTTGAACGGAGTCACCTAGTGCAG”: the binding signal was 8660 fluorescence intensity (a.u.).

As to “TATGTGTCTGTTTCGCTCCGTTTTTGTTCATTAACCCGGTCGGAGTCACCTAGTGCAG”, the binding signal was 10700 fluorescence intensity (a.u.).

With “GTCAAATTTCTGTGCTCCATAAGATCTCTTCTCTTTTTTTCGGAGTCACCTAGTGCAG”, the binding signal is 16700 fluorescence intensity (a.u.).

“GCTGACTACTCCCTACATCTCCTGATTTCTGGATATCTTGCGGAGTCACCTAGTGCAG”: the binding signal is 8170 fluorescence intensity (a.u.).

In the case of “TGTAGTCCCGCGTCGCACGGCATCCGGCCGGCCTCTCCTACGGAGTCACCTAGTGCAG”, the binding signal is 8760 fluorescence intensity (a.u.).

Consider “AGCTTAGCCACTGCATGTCTGTTAGTACTAATAATAATTTCGGAGTCACCTAGTGCAG”, for which the binding signal was 10100 fluorescence intensity (a.u.).

For “GTTGAGCGCTGCTTCTGCAAATAATGTCCCCATCGATCGACGGAGTCACCTAGTGCAG”, the binding signal was 8960 fluorescence intensity (a.u.).

With “GGCCTATTCATTAGCGCTTACTTGTGGTGCACTATTTTGTCGGAGTCACCTAGTGCAG”, the binding signal was 10300 fluorescence intensity (a.u.).

For “ACTTAACCCATGCCAACTTCTTCTCTCTCTCTCTCTTCTCCGGAGTCACCTAGTGCAG”, the binding signal is 8940 fluorescence intensity (a.u.).

As for “ATGTGGGCGGGTGGGTGTTCGTGTCTCCGCTTGTCTCCCCCGGAGTCACCTAGTGCAG”, the binding signal was 14900 fluorescence intensity (a.u.).

Turning to “GGTGGGAAGTTGTAGTCTAGGAAGTGATTGATATTTGAGCCGGAGTCACCTAGTGCAG”, the binding signal is 8910 fluorescence intensity (a.u.).

With “CGCGCTCGTCCCATCCCATGCCTGCGGCCGTGACCGCGAGCGGAGTCACCTAGTGCAG”, the binding signal was 8970 fluorescence intensity (a.u.).

With “TGTCCTTTGCCAGCTTGCACTGATAGTTGCACCTAAACCACGGAGTCACCTAGTGCAG”, the binding signal is 9150 fluorescence intensity (a.u.).

With “TCAAACACGTACTAAAAAGTCAACGGTGTCAAACATTTTGCGGAGTCACCTAGTGCAG”, the binding signal is 15600 fluorescence intensity (a.u.).

In the case of “GCTCCCACTGATCTCTCTCTCGTCTTCTTCTTCTTTGAGCCGGAGTCACCTAGTGCAG”, the binding signal is 9240 fluorescence intensity (a.u.).

For the sequence “TCTTCCACTTCTCTCTTTCTCTGTGTAGGGGCAGCAGTGGCGGAGTCACCTAGTGCAG”, the binding signal is 10800 fluorescence intensity (a.u.).

On to “GCCCCGTTGTTTTCTTATTGAGATGTACAGTAGATTCTACCGGAGTCACCTAGTGCAG”, for which the binding signal is 8900 fluorescence intensity (a.u.).

Take “AAAGGTGTTTGTATTTTTCACCGTCTTTTTTGCAGCGCTCCGGAGTCACCTAGTGCAG”: the binding signal is 9940 fluorescence intensity (a.u.).

Regarding “ATAACCAACCTTGAGTGTCCGTGCTGCTGCCACCGCCCACCGGAGTCACCTAGTGCAG”, the binding signal is 9900 fluorescence intensity (a.u.).

“GGATACGCCCATATATACGGCCCATACCCAATCGTCCTTCCGGAGTCACCTAGTGCAG”: the binding signal was 8270 fluorescence intensity (a.u.).

On to “TTTTTTTACATTTAATACTCCATGCATGTATCCAAACATTCGGAGTCACCTAGTGCAG”, for which the binding signal is 8280 fluorescence intensity (a.u.).

For the sequence “TGTGTCACTCTACTCTTTGGATTATCTTACCCCTGCTTAGCGGAGTCACCTAGTGCAG”, the binding signal is 8780 fluorescence intensity (a.u.).

For “ATGAACATCGATCCACTCCTAACAACCTTCGACAATTATTCGGAGTCACCTAGTGCAG”, the binding signal was 9420 fluorescence intensity (a.u.).

For “CATGTCTCGAGTTGTTGTAATGGCGTCTTGGTTTGTGCTTCGGAGTCACCTAGTGCAG”, the binding signal was 8050 fluorescence intensity (a.u.).

As for “GTACTATGTATTGTCCCATCGTTGTATAGGTTGGTTTTTTCGGAGTCACCTAGTGCAG”, the binding signal is 8240 fluorescence intensity (a.u.).

Take “TTCCAACCCCAATTCGACCGACTGCTACCATTGAGCCCAGCGGAGTCACCTAGTGCAG”: the binding signal was 9390 fluorescence intensity (a.u.).

As to “GATAATAATTCACCTGTAACCCAACCATATGCGACCACTCCGGAGTCACCTAGTGCAG”, the binding signal is 9260 fluorescence intensity (a.u.).

As to “ACTATTACTCCTCACTTCTTATAGTTTACTCTTGGTTAATCGGAGTCACCTAGTGCAG”, the binding signal is 10600 fluorescence intensity (a.u.).

For the sequence “GTGTACATTTGCAAACTTGACATAATTACTTCATGGACCTCGGAGTCACCTAGTGCAG”, the binding signal is 11200 fluorescence intensity (a.u.).

With “AGAAATTCAATATATTCTCAACCGTGTGTCCGTTTGACTCCGGAGTCACCTAGTGCAG”, the binding signal was 8880 fluorescence intensity (a.u.).

Consider “TGATGTCTCTCTTGTCTCCATTTGGCATGTTCTCATCCGGCGGAGTCACCTAGTGCAG”, for which the binding signal is 11100 fluorescence intensity (a.u.).

Turning to “AAGATTCACCTGTTCCTTTCGCACCAAACTTCCCAACAGACGGAGTCACCTAGTGCAG”, the binding signal was 8730 fluorescence intensity (a.u.).

“ATAAATTAAGATGATGAATGGGTGACAATCTTTTTTTTCTCGGAGTCACCTAGTGCAG”: the binding signal is 8100 fluorescence intensity (a.u.).

As to “GTTCTCGCAAATTCCGAAGGCTTAGCCCAACTCAACATTTCGGAGTCACCTAGTGCAG”, the binding signal is 8700 fluorescence intensity (a.u.).

With “ATGACATGTCATGGGACTTACTTTACATGGTTTTGAATACCGGAGTCACCTAGTGCAG”, the binding signal is 8140 fluorescence intensity (a.u.).

Take “CCATTTTTTCACACCCCAGCTACTGTTTAGGTCACCTGTCCGGAGTCACCTAGTGCAG”: the binding signal is 10100 fluorescence intensity (a.u.).

For “ACATGTGGGCCCCACATGTCAGTGGGCCCACATTCTTTTTCGGAGTCACCTAGTGCAG”, the binding signal was 8180 fluorescence intensity (a.u.).

With “TTTGAGGTCTTGTTTGTTTGGGTTTTACCTCCAATTCGGGCGGAGTCACCTAGTGCAG”, the binding signal was 9440 fluorescence intensity (a.u.).

In the case of “GGGGAGGCGGGTGGGGTTGAGGAGGTCGGTGGCCTCGGCGCGGAGTCACCTAGTGCAG”, the binding signal was 12300 fluorescence intensity (a.u.).
